Laboratory results from patent US20100115663A1, “Acetyl-CoA Carboxylase Herbicide Resistant Sorghum” (priority 2007, published 2010).
At least one compound was matched to its structure with a doubt left.

Key:
Format in all cases: in vivo
[1] = tested on: wild sorghum populations from Bolivia; assay: Greenhouse herbicide spray selection, wild accessions; settings: 0.09 lb ai clethodim acre^-1 at 18 days after planting; 83 wild populations
Source text: (§1) Seeds of 83 wild sorghum populations from Bolivia were planted in a greenhouse for comparison with Tx2783, an herbicide susceptible elite sorghum genotype. Wild sorghum genotypes were planted in flats containing MetroMix 360 potting soil (Sun Gro) and greenhouse grown. Tx2783 was planted with the wild accessions in each flat for comparison. In one selection using clethodim, plants were sprayed with 0.09 lb ai clethodim acre^−1 at 18 days after planting. […] In one selection using fluazifop-P, flats with Tx2783 and wild accessions were sprayed with a rate of 0.12 lb ai fluazifop-P acre^−1 at 18 days after planting and with 0.36 lb ai fluazifop-P acre^−1 at 32 days after planting. […] In a third experiment, plants were sprayed with a rate of 0.05 lb ai quizalofop acre^−1 at 18 days after planting and with 0.11 lb ai quizalofop acre^−1 at 32 days after planting.

[2] = tested on: Tx2783, an herbicide susceptible elite sorghum genotype; assay: Greenhouse herbicide spray selection, susceptible check; settings: 0.09 lb ai clethodim acre^-1 at 18 days after planting
Source text: as §1

[3] = tested on: Bol-71 wild sorghum genotype; assay: Greenhouse herbicide spray selection, Bol-71; settings: 0.09 lb ai clethodim acre^-1 at 18 days after planting
Source text: as §1

## CCSC(C)CC1CC(=O)C(/C(CC)=N/OC/C=C/Cl)=C(O)C1 (stereo not drawn) [clethodim]
[1]
  plant response to spraying: many of the wild sorghums died
[2]
  plant response to spraying: died
[3]
  tolerance to herbicide: high levels of tolerance
